For some assays here: At least one structure is not confirmed: it was looked up by name or label, or the drawing left a doubt. Some results were stated once for a whole list of compounds, not compound by compound.
B1: YieF: native E. coli NAD(P)H oxidoreductase ChrR (formerly called YieF), SEQ ID NO:1 (protein)
chain: MSEKLQVVTLLGSLRKGSFNGMVARTLPKIAPASMEVNALPSIADIPLYDADVQQEDGFPATVEALAEQIRQADGVVIVTPEYNYSVPGGLKNAIDWLSRLPDQPLAGKPVLIQTSSMGVIGGARCQYHLRQILVFLDAMVMNKPEFMGGVIQNKVDPQTGEVIDQSTLDHLTGQLTAFGEFIQRVKI
modifications: E. coli

How the values were obtained:
ChrR = biological target: T1, ChrR (Escherichia coli, UniProt P0AGE6, E57D/G167S); assay type: biochemical, E. coli; conditions: CNOB versus CB 1954
T1 construct: made in house; host or cells: E. coli BL21 (DE3)
Description: To evaluate if CNOB competes with CB 1954 on the active site of the enzyme we performed a competition assay.

HeLa cells = assay: Cell survival assay using SL 7838 to deliver the wild type or evolved enzymes; assay type: cell-based, Human; conditions: in the presence of CB 1954 (15 μM); enzyme expressed by SL 7838 bacteria, IPTG induced (FIG. 5)

Molecule | mode of inhibition in competition assay (ChrR) | reduction in survival of HeLa cells (HeLa cells)
NC(=O)c1cc(N2CC2)c([N+](=O)[O-])cc1[N+](=O)[O-] [CB 1954, 5-aziridinyl-2,4-dinitrobenzamide, reference compound] | competitive inhibitors of each other | –
B1 | – | 10-25%

Source: patent US7687474B2, “Nitroreductase enzymes” (The Board of Trustees of the Leland Stanford Junior …, priority 2005, dated 2010)
